PubChem BioAssay AID540256 (National Center for Advancing Translational Sciences (NCATS), 2011)
In all, about 300,000 compounds went through this assay and about 3,700 (1.2%) were called active. The shares of active, inactive and inconclusive entries below differ from those in the screen. Calls come from the whole dose curve; tested in HEK293 cells. Potencies of inconclusive entries are doubtful fits and often do not repeat.

Assay: qHTS for Inhibitors of binding or entry into cells for Lassa Virus; note: nearly all actives have a fitted effect of over 50% in size
Conditions: Lassa virus pseudotype entry inhibition, cell reporter; activity change, negative = inhibition: at 37.9 µM (top of the series) unless noted
% is set by controls: 0 for no effect and ±100 for the full control effect; potency is the fitted concentration of half-maximal effect.

SMILES | activity change, negative = inhibition | Potency
Cc1ccc2c(CN3CCCCC3C)cc(=O)oc2c1C (centres undefined) | inactive: -4.56% [at 46.1 µM] | 
OCCCNC(=S)Nc1ccc(Nc2ccccc2)cc1 |  | inconclusive: 14.1 µM [inhibitor, single point]
COc1ccccc1/C=C/C(=O)Nc1nc2n(n1)C(c1ccc(F)cc1)C=C(c1ccccc1)N2 (centres undefined) |  | inconclusive: 1.78 µM [inhibitor, full curve, poor fit]
Cc1ccc(OCCn2c(C3CC(=O)N(Cc4ccc(F)cc4)C3)nc3ccccc32)c(C)c1 (centres undefined) |  | inconclusive: 35.5 µM [inhibitor, single point]
CCCN(CCS(C)(=O)=O)Cc1ccc(-c2ccc3ncnc(Nc4ccc(OCc5cccc(F)c5)c(Cl)c4)c3c2)o1 |  | inconclusive: 19.9 µM [inhibitor, partial curve, poor fit]
COc1ccc(C2CC(C(F)(F)F)n3ncc(C(=O)Nc4cccc(O)c4)c3N2)cc1OC (centres undefined) | inactive: -14.6% | 
O=C(NCCCN1CCOCC1)C(Cl)(Cl)Cl | inactive: 15.8% | 
O=C(CCCC(=O)N(c1ccc2c(c1)OCCO2)C(C(=O)NC1CCCCC1)c1ccc(Cl)cc1)Nc1ccccn1 (centres undefined) |  | inconclusive: 29.1 µM [inhibitor, single point]
CCN1CCN(CCC(=O)Nc2cccc(OC)c2)CC1 |  | inconclusive: 0.206 µM [activator, full curve, poor fit]
O=C(C1CCOCC1)N1CCCC(N2CCN(c3cccc(Cl)c3)CC2)C1 (centres undefined) |  | inconclusive: 12.6 µM [activator, partial curve, poor fit]
CCOC(=O)c1cc(C(=O)c2cc(F)ccc2O)coc1=N | inactive: 17.4% | 
CCOc1ccc(N(CC(=O)OC)S(=O)(=O)c2ccc3c(c2)n(C)c(=O)c(=O)n3C)cc1 |  | inconclusive: 11.2 µM [activator, single point]
Oc1c(Cl)cccc1Cc1cc(Cl)cc(Cl)c1O |  | inconclusive: 22.4 µM [inhibitor, single point]
Clc1ccc(-c2nnc(SCc3ccon3)o2)c(Cl)c1 |  | inconclusive: 20.6 µM [inhibitor, single point]
Cc1ccc(-n2nnnc2SCC(=O)NCCc2ccccc2)cc1C | inactive: -37.6% [at 46.1 µM] | 
CC(=O)Nc1cccc(C(=O)OCC(=O)NCc2cc(C)c(O)c(C)c2)c1 |  | inconclusive: 5.01 µM [activator, full curve, poor fit]
O=C(Nc1ccccn1)NC1CCS(=O)(=O)C1 (centres undefined) |  | inconclusive: 6.51 µM [activator, single point]
CCc1cccc(NC(=O)CC(c2ccc(OC)cc2)N2Cc3ccccc3C2=O)c1 (centres undefined) |  | inconclusive: 1.58 µM [activator, partial curve, poor fit]
CCOc1ccc(OCc2ccc(C(=O)N3CCCC3)o2)cc1 | inactive: -8.65% | 
COc1ccccc1C(=O)NNC(=O)c1cccc(F)c1 |  | inconclusive: 20.6 µM [inhibitor, single point]
CNCCc1c[nH]c2ccc(O)cc12 | inactive: 7.55% | 
CCOc1ccccc1NC(=O)Cn1c(=O)n(-c2ccc(C)cc2)c(=O)c2c1cnn2C | inactive: -16.8% [at 46.1 µM] | 
Cc1cc(C)cc(NC(=O)CCn2cnc3ccccc3c2=O)c1 | inactive: -0.936% [at 46.1 µM] | 

SMILES | activity change, negative = inhibition | Potency
CCOC(=O)C1CCN(C(=O)C2CCC(=O)N(Cc3cccc(C(F)(F)F)c3)C2)CC1 (centres undefined) | inactive: -0.372% | 
O=C(NNC(=O)c1nn(-c2ccc(F)cc2)ccc1=O)c1ccc(C(F)(F)F)cc1 |  | inconclusive: 31.6 µM [activator, single point]
COc1ccc(OCC(=O)NCc2ccc3c(c2)CCN3C(=O)c2cccc(C)c2)cc1 |  | inconclusive: 25.1 µM [inhibitor, single point]
CN1CCC(N(CCc2ccccc2)C(=O)CCC(=O)O)CC1 | inactive: 1.54% | 
CC(C)(C)OC(=O)NC(CCNC=C1C(=O)OC(C)(C)OC1=O)C(=O)O (centres undefined) |  | inconclusive: 0.13 µM [activator, full curve, poor fit]
CCC(=O)N1CCN(C(=O)c2ccccc2)CC1 |  | inconclusive: 6.51 µM [inhibitor, single point]
CC1(C)CC(=O)c2c(nc(SCC(=O)Nc3nsc(-c4ccccc4)n3)c(C#N)c2-c2ccccc2)C1 |  | inconclusive: 15.8 µM [inhibitor, partial curve, poor fit]
O=[N+]([O-])c1ccc(/C=N/Nc2nc(N3CCCCC3)nc(N3CCCCC3)n2)o1 |  | inconclusive: 32.6 µM [inhibitor, single point]
CSc1ccc(CCNC(=O)c2ccc(-n3c(C)cc4c3CCC(C)C4)cc2)cc1 (centres undefined) |  | inconclusive: 14.1 µM [inhibitor, single point]
CN(C)c1ccnc2sc3c(=O)n(-c4ccccc4)cnc3c12 |  | inconclusive: 0.231 µM [inhibitor, full curve]
Cn1cccc1-c1cc2n(n1)CCC(=O)N2CCCC(=O)NCc1cccc(Cl)c1 | inactive: -7.44% [at 46.1 µM] | 
COC(=O)c1c(N)n(-c2ccc(NC(C)=O)cc2)c2nc3ccccc3nc12 | inactive: -6.12% | 
O=C(Oc1ccccc1)N1CCN(C(=O)c2ccco2)CC1 |  | inconclusive: 35.5 µM [activator, single point]
CC1(c2ccc(OCC#N)cc2)C=C(c2ccc(OCC#N)cc2)n2nc(C(F)(F)F)nc2N1 (centres undefined) |  | inconclusive: 2.82 µM [inhibitor, partial curve]
CCc1ccc(CNC(=O)Cn2nc(C)c3nn(-c4ccc(Cl)cc4)c(C)c3c2=O)cc1 |  | inconclusive: 2.82 µM [inhibitor, full curve]
CCNC(=O)CC1C(=O)N(CC)C(=S)N1NC(=O)c1ccccc1 (centres undefined) |  | inconclusive: 7.94 µM [activator, partial curve, poor fit]
CCOC(=O)c1c(C)[nH]c(C(=O)OCC(=O)NC2CCS(=O)(=O)C2)c1C (centres undefined) |  | inconclusive: 28.2 µM [activator, single point]
COc1ccc(CNC(=O)c2cccnc2SC)cc1OC |  | inconclusive: 12.6 µM [inhibitor, single point]
O=C1NC(c2ccccc2)N=C2Oc3ccccc3C=C12 (centres undefined) |  | inconclusive: 6.31 µM [inhibitor, partial curve, poor fit]
CCOC(=O)c1cc(-c2nnc(SCC(=O)Nc3ccc(F)cc3)o2)c(C)nc1C |  | inconclusive: 35.5 µM [inhibitor, single point]
CCOC(=O)C1(CCOc2ccccc2)CCN(Cc2cccc(OC)c2OC)CC1 |  | inconclusive: 35.5 µM [inhibitor, single point]
O=C(NCC(c1ccc2c(c1)OCO2)N1CCN(c2ccccc2)CC1)c1ccc(F)c(F)c1 (centres undefined) |  | inconclusive: 7.08 µM [inhibitor, full curve, poor fit]
CC1CCC(C(C)C)C(OC(=O)Cn2c(COc3ccccc3)[n+](C)c3ccccc32)C1 (centres undefined) |  | inconclusive: 12.6 µM [inhibitor, partial curve, poor fit]

SMILES | activity change, negative = inhibition | Potency
CCOC(=O)/C(=N\Nc1cc(C(F)(F)F)ccc1Cl)N(CC)CC |  | inconclusive: 6.51 µM [activator, single point]
Cc1ccc(O)c(-c2cc(C(=O)Nc3cccnc3)[nH]n2)c1 |  | inconclusive: 11.2 µM [inhibitor, single point]
CCCc1nnc(SCc2cc(=O)c3c(C)cc(C)cc3[nH]2)n1C | inactive: 9.71% [at 46.1 µM] | 
Cc1onc(-c2ccccc2Cl)c1C(=O)OCc1nnc(-c2ccccc2)o1 | inactive: 0.569% | 
CCc1ccc(OCCNC(=O)c2ccccc2SCc2ccccc2)cc1 |  | inconclusive: 5.01 µM [inhibitor, full curve, poor fit]
CCOC(=O)c1sc(N(Cc2ccccc2)C(=O)CCl)nc1C |  | active: 18.3 µM
Cc1nc(Cl)sc1C(=O)Nc1cc(F)cc(F)c1 |  | inconclusive: 35.5 µM [inhibitor, single point]
CC(=O)c1ccc(OC(NC(=O)Cc2ccccc2)C(Cl)(Cl)Cl)cc1 (centres undefined) | inactive: -2.01% | 
COc1ccc(CNC(=O)Nc2cccc(Cl)c2)cc1 | inactive: 3.66% [at 46.1 µM] | 
O=C(CCN=C1NS(=O)(=O)c2ccccc21)OCC(=O)c1ccc(F)c(F)c1 | inactive: 6.55% | 
O=C(Cc1ccc(-c2ccccc2)cc1)NCCS(=O)(=O)N1CCN(c2cccc(Cl)c2)CC1 | inactive: -0.474% [at 46.1 µM] | 
CCc1ccc(OCC(=O)NC(NC(=S)Nc2ccc(C)cc2C)C(Cl)(Cl)Cl)cc1 (centres undefined) | inactive: -26.8% | 
COC(=O)CC(=O)CSc1nc2cc(C(=O)NC(C)C)ccc2c(=O)n1CCc1ccccc1 | inactive: -23.1% [at 46.1 µM] | 
COc1ccc(S(=O)(=O)N2CCCCC2)cc1C(=O)N1CCCC1 | inactive: 0.269% | 
C[N+]1(CC(O)COc2ccccc2)CCN(C(=O)c2ccc([N+](=O)[O-])cc2)CC1 (centres undefined) |  | inconclusive: 3.98 µM [inhibitor, single point]
COc1ccccc1C(c1nnnn1CS(=O)(=O)c1ccc(C)cc1)N1CCSCC1 (centres undefined) | inactive: -17.4% | 
CCOc1ccc(N2C(N)=NC(N)=NC2(C)C)cc1 | inactive: 4.87% | 
CCCc1oc2ccc(NS(=O)(=O)c3ccc(OCC)cc3)cc2c1C(=O)OCC |  | inconclusive: 4.47 µM [inhibitor, full curve, poor fit]
COc1ccc(Cc2nnc(NC(=O)c3ccccc3F)s2)cc1 |  | inconclusive: 14.1 µM [inhibitor, partial curve, poor fit]
COc1cccc(-c2cc(=O)c3cc(NC(=O)c4ccc(N(C)C)cc4)ccc3[nH]2)c1 |  | active: 0.92 µM
COc1ccc2c(c1)c1c(c(=O)n(CCc3ccccc3)c(=O)n1Cc1cccc(C)c1)n2C | inactive: 10.8% [at 46.1 µM] | 
Cc1ccc(NC(=O)OCc2ccccc2S(C)=O)cc1 (centres undefined) |  | inconclusive: 10 µM [activator, partial curve]
CCOC(=O)C1(Cc2cccc(Cl)c2)CCCN(C(=O)c2cc(CC)on2)C1 (centres undefined) |  | inconclusive: 2.82 µM [activator, single point]

3 compounds from above, arranged by formula weight, ascending.
SMILES | activity change, negative = inhibition | Potency
CN(C)c1ccnc2sc3c(=O)n(-c4ccccc4)cnc3c12 |  | inconclusive: 0.231 µM [inhibitor, full curve]
COc1ccc(OCC(=O)NCc2ccc3c(c2)CCN3C(=O)c2cccc(C)c2)cc1 |  | inconclusive: 25.1 µM [inhibitor, single point]
CCc1ccc(CNC(=O)Cn2nc(C)c3nn(-c4ccc(Cl)cc4)c(C)c3c2=O)cc1 |  | inconclusive: 2.82 µM [inhibitor, full curve]
